Data on 33 targets can be found in the supplement of paper PMC10849652.

Sequences of proteins named here, by UniProt entry; tags and fusion partners are left off. A change or cut given only in a name is not applied to a line headed by its entry.
UniProt Q9UET6: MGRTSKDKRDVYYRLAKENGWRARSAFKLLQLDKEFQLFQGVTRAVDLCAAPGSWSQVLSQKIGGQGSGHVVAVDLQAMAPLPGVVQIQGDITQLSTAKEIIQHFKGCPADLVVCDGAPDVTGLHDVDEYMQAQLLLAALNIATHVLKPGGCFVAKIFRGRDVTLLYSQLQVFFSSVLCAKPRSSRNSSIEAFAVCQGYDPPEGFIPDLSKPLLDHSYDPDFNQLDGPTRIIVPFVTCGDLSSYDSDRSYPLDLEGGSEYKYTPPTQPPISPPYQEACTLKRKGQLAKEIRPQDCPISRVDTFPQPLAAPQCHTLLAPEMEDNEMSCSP
UniProt Q86SF2: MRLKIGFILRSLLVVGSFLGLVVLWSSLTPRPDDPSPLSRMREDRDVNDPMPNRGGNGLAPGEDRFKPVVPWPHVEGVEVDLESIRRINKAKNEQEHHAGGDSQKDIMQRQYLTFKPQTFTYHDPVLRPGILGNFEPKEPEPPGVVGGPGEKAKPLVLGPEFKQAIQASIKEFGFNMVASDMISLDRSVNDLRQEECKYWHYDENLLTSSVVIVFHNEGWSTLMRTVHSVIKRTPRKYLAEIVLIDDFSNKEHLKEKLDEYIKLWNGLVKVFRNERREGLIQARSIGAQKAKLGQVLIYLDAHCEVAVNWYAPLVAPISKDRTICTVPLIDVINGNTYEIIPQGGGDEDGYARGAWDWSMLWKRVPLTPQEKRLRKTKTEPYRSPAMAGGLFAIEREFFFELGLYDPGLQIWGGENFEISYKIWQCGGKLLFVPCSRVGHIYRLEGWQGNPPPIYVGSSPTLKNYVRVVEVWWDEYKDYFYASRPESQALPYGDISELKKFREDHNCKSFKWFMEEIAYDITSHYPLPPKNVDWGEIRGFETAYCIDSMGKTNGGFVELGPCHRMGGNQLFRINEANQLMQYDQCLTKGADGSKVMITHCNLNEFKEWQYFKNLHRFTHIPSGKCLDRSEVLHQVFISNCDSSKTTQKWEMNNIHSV
UniProt Q14697: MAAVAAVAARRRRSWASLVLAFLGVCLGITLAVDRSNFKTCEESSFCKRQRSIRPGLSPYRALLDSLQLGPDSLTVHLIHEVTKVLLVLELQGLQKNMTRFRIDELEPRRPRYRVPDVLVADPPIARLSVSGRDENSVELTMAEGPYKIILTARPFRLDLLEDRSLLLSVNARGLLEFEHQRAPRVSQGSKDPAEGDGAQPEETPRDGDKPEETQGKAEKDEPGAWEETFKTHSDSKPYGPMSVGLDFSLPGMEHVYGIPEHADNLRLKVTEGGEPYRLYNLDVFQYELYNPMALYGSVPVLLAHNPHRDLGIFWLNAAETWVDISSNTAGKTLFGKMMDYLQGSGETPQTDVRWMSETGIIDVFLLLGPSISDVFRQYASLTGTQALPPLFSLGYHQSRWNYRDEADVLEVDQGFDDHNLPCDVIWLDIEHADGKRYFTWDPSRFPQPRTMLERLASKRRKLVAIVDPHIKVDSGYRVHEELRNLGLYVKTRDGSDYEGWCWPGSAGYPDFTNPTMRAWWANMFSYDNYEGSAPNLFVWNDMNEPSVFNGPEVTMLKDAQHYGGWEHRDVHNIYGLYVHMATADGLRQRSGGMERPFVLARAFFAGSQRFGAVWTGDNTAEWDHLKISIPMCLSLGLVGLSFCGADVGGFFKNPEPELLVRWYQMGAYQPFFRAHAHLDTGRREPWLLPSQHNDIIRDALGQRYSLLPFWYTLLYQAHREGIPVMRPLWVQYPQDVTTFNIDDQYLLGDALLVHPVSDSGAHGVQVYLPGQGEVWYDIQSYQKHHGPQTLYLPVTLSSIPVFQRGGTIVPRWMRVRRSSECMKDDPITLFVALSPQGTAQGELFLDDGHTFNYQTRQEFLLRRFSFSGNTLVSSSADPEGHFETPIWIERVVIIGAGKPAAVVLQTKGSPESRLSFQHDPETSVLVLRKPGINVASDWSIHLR
UniProt Q9UN86: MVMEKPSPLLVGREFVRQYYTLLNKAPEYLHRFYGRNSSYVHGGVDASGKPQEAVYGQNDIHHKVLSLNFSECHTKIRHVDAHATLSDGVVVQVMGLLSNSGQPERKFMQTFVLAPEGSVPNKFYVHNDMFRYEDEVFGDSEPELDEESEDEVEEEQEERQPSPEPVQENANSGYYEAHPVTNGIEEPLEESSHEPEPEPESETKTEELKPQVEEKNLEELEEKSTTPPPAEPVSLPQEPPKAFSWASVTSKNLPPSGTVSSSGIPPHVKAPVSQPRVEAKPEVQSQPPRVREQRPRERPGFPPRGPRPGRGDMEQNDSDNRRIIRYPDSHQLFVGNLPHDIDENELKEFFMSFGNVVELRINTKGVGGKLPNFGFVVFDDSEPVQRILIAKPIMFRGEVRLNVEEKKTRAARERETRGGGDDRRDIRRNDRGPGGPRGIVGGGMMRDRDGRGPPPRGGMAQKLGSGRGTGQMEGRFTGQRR
UniProt P04062: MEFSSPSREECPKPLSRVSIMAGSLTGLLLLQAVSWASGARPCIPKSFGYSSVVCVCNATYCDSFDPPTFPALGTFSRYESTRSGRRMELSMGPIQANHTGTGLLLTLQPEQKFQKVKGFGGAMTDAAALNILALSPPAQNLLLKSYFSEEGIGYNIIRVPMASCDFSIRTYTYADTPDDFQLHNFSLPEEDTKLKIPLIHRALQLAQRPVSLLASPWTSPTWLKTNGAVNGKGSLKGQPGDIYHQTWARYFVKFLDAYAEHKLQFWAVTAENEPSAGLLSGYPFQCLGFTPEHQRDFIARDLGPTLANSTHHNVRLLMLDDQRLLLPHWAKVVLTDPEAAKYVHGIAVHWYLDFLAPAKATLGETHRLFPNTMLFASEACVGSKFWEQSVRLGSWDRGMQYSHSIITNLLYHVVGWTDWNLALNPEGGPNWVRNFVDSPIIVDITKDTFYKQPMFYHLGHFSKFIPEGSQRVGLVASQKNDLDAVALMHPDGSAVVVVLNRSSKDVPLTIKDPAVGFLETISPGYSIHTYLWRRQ
UniProt Q8WXI9: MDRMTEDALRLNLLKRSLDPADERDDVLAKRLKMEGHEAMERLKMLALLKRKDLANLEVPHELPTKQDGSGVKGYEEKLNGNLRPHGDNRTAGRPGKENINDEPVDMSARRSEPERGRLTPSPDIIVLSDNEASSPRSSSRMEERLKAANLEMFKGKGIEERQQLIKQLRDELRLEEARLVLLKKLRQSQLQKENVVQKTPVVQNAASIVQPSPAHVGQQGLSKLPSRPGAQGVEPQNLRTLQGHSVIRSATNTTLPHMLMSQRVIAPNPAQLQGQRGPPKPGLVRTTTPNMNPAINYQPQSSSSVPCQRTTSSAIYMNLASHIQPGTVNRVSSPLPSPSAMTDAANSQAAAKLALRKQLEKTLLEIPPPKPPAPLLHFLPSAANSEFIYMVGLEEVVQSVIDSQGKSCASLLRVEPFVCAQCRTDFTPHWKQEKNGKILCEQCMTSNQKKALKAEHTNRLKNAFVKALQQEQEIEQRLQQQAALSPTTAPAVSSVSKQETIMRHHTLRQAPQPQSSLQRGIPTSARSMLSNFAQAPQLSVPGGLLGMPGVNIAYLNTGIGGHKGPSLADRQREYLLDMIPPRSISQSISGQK
UniProt Q96CN9: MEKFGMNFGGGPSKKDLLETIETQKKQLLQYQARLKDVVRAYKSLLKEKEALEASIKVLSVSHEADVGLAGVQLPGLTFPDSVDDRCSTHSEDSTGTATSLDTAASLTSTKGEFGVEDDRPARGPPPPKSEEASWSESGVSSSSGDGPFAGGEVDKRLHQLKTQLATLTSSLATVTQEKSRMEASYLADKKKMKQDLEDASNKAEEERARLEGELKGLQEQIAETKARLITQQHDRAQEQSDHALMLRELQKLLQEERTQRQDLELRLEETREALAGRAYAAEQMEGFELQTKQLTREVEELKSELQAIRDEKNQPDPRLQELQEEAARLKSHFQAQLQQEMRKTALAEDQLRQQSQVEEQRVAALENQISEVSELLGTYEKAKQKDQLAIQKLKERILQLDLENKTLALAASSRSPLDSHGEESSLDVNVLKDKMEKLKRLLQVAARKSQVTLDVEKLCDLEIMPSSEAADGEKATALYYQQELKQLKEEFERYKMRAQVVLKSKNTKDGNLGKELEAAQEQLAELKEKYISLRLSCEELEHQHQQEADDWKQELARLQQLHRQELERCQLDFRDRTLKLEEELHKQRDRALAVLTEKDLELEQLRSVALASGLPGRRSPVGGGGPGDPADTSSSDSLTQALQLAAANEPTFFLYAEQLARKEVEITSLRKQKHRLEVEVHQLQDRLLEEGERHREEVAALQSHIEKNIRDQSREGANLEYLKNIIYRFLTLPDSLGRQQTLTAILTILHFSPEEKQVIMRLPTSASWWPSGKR
UniProt Q96C23: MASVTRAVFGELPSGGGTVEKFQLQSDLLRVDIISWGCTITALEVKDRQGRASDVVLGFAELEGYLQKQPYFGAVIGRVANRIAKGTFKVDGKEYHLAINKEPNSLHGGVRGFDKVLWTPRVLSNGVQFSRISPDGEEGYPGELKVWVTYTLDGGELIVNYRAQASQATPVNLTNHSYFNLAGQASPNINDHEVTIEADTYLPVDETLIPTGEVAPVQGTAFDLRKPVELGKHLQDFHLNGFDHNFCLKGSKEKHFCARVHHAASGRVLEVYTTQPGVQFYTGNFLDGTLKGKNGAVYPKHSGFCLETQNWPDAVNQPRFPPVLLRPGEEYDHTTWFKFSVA
UniProt P04406: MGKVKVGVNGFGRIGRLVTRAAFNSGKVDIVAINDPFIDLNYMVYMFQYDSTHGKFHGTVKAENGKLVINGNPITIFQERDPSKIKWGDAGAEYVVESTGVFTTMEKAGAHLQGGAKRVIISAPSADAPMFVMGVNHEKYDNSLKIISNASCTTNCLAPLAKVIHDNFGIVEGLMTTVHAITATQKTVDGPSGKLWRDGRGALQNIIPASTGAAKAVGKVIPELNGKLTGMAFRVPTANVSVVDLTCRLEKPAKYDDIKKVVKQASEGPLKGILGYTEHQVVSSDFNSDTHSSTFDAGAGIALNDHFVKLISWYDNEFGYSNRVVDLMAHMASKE
UniProt Q96RP9: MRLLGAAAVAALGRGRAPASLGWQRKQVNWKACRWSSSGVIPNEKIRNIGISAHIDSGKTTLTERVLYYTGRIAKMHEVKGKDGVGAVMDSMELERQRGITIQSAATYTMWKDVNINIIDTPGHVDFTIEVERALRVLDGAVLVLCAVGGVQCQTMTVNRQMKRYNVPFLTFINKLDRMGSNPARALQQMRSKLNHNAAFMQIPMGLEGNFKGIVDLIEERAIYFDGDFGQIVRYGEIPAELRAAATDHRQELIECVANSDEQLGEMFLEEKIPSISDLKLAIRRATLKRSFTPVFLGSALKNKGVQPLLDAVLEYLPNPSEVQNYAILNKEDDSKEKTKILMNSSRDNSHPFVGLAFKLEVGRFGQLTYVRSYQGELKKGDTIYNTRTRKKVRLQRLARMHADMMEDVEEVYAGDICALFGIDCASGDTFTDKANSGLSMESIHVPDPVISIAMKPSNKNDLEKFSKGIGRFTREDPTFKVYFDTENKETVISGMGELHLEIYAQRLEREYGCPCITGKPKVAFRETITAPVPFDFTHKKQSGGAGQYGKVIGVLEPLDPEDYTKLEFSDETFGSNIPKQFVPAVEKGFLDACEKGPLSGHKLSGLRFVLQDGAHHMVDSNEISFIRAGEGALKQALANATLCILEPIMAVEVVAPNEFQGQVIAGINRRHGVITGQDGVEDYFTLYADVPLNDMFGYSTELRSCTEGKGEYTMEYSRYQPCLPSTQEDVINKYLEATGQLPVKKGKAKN
UniProt O95166, whole entry, looked up: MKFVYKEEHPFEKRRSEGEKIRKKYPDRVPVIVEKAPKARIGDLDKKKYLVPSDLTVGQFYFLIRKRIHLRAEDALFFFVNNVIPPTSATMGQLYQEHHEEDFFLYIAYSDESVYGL
UniProt Q8WXD5: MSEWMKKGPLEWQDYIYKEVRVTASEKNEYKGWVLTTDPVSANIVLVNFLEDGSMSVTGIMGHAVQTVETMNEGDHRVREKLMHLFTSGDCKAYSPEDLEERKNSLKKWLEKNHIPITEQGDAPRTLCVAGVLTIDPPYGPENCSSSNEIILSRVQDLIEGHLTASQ
UniProt P34059: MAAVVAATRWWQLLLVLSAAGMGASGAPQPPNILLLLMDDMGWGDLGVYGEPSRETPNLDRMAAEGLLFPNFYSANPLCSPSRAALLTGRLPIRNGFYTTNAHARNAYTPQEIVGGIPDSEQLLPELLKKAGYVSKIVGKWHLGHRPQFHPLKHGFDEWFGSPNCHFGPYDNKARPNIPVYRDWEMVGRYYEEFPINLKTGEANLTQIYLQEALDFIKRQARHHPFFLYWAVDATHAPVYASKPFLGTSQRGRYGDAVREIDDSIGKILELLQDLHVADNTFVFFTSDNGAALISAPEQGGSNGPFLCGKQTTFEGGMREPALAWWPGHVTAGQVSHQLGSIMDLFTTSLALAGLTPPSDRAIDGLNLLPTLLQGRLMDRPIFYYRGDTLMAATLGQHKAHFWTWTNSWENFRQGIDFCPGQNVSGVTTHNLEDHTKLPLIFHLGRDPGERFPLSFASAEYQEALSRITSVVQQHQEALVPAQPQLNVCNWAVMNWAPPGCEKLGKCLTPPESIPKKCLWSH

Some of the results follow.

Compound in the first assay: C#Cc1cccc(Nc2ncnc3cc(OCCOC)c(OCCOC)cc23)c1 [erlotinib]
The experiment in a line: log2 fold change, soluble protein after heating vs DMSO (PISA); higher = thermal stabilisation; K562 lysate, 10 uM; active = over 0.2 and 3.5 SD of the protein, either way, in both replicates (recomputed). Summed up:
(§1)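 Quantification was by TMTpro 16plex LC-MS/MS with equalised channel sums, applied to the supernatant after 21,000xg for 90 min. Samples were crude K562 extract at 1 mg/mL protein in PBS pH 7.4 with 1 mM MgCl2, treated with 10 μM compound for 30 min, heated for 3 min across 48°C-58°C, pooled and brought to 0.5% NP-40 at 4°C. Values are log-two fold changes in thermal stability relative to solvent controls, from duplicates.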
For FTSJ1 (UniProt Q9UET6), the log2 fold change was inactive: -0.008.

As to GCC2 (UniProt Q8IWJ2), the log2 fold change was inactive: 0.006.

For GALNT7 (UniProt Q86SF2), the log2 fold change is inactive: 0.

On to GEMIN2 (UniProt O14893), for which the log2 fold change was inactive: 0.032.

For GANAB isoform 2 (UniProt Q14697), the log2 fold change is inactive: 0.022.

In the case of GALNT5 (UniProt Q7Z7M9), the log2 fold change is inactive: -0.025.

Regarding GALNT2 (UniProt Q10471), the log2 fold change was inactive: -0.028.

In the case of G3BP2 (UniProt Q9UN86), the log2 fold change was inactive: 0.023.

Take GBA (UniProt P04062): the log2 fold change was inactive: 0.038.

Consider FUCA1 (UniProt P04066), for which the log2 fold change was inactive: 0.

Turning to GATAD2B (UniProt Q8WXI9), the log2 fold change is inactive: 0.01.

As for FREM2 (UniProt Q5SZK8), the log2 fold change is inactive: 0.015.

Regarding FRRS1 (UniProt Q6ZNA5), the log2 fold change was inactive: 0.055.

As to GCC1 (UniProt Q96CN9), the log2 fold change is inactive: -0.007.

Turning to FXN (UniProt Q16595), the log2 fold change was inactive: 0.019.

Turning to GABPB1 (UniProt Q06547), the log2 fold change is inactive: -0.004.

On to FPGT (UniProt O14772), for which the log2 fold change was inactive: 0.031.

Consider GALM (UniProt Q96C23), for which the log2 fold change was inactive: -0.002.

For GALNT1 (UniProt Q10472), the log2 fold change was inactive: -0.044.

In the case of GAPDH (UniProt P04406), the log2 fold change was inactive: -0.007.

GFER (UniProt P55789): the log2 fold change is inactive: 0.008.

As for GFPT1 (UniProt Q06210), the log2 fold change is inactive: 0.031.

On to GART (UniProt P22102), for which the log2 fold change was inactive: -0.007.

Turning to GALNT12 (UniProt Q8IXK2), the log2 fold change is inactive: -0.07.

With GFM1 (UniProt Q96RP9), the log2 fold change was inactive: -0.01.

For FYB1 isoform 3 (UniProt O15117), the log2 fold change is inactive: -0.019.

As to GABARAP (UniProt O95166), the log2 fold change was inactive: 0.019.

Consider GCSH (UniProt P23434), for which the log2 fold change is inactive: -0.002.

Take GARS1 (UniProt P41250): the log2 fold change was inactive: 0.006.

As to GEMIN6 (UniProt Q8WXD5), the log2 fold change was inactive: 0.02.

With GALNS (UniProt P34059), the log2 fold change was inactive: -0.024.

As for GALE (UniProt Q14376), the log2 fold change is inactive: 0.

Turning to FSCN1 (UniProt Q16658), the log2 fold change is inactive: -0.004.

Compound in another assay: C/C(=N\NC(=O)C1=CC(=CC=C1)S(=O)(=O)N2CCOCC2)/C3=C(C=CC(=C3)Cl)O
The assay is described as above. Summed up:
as §1
Consider FTSJ1 (UniProt Q9UET6), for which the log2 fold change is inactive: 0.

For the target GCC2 (UniProt Q8IWJ2), the log2 fold change was inactive: -0.011.

For GALNT7 (UniProt Q86SF2), the log2 fold change was inactive: -0.033.

For GEMIN2 (UniProt O14893), the log2 fold change was inactive: 0.047.

GANAB isoform 2 (UniProt Q14697): the log2 fold change is inactive: 0.005.

For the target GALNT5 (UniProt Q7Z7M9), the log2 fold change was inactive: 0.038.

Regarding GALNT2 (UniProt Q10471), the log2 fold change was inactive: 0.005.

For G3BP2 (UniProt Q9UN86), the log2 fold change is inactive: -0.071.

On to GBA (UniProt P04062), for which the log2 fold change is inactive: -0.051.

For FUCA1 (UniProt P04066), the log2 fold change was inactive: 0.008.

Consider GATAD2B (UniProt Q8WXI9), for which the log2 fold change is inactive: 0.071.

On to FREM2 (UniProt Q5SZK8), for which the log2 fold change was inactive: -0.095.

As for FRRS1 (UniProt Q6ZNA5), the log2 fold change is inactive: -0.003.

Consider GCC1 (UniProt Q96CN9), for which the log2 fold change is inactive: 0.067.

For FXN (UniProt Q16595), the log2 fold change is inactive: 0.021.

Take GABPB1 (UniProt Q06547): the log2 fold change was inactive: 0.033.

On to FPGT (UniProt O14772), for which the log2 fold change was inactive: -0.005.

For the target GALM (UniProt Q96C23), the log2 fold change was inactive: 0.022.

GALNT1 (UniProt Q10472): the log2 fold change is inactive: -0.044.

For GAPDH (UniProt P04406), the log2 fold change was inactive: -0.032.

For GFER (UniProt P55789), the log2 fold change is inactive: -0.143.

On to GFPT1 (UniProt Q06210), for which the log2 fold change was inactive: -0.008.

For GART (UniProt P22102), the log2 fold change was inactive: 0.022.

Consider GALNT12 (UniProt Q8IXK2), for which the log2 fold change was inactive: 0.307.

Consider GFM1 (UniProt Q96RP9), for which the log2 fold change was inactive: -0.023.

Take FYB1 isoform 3 (UniProt O15117): the log2 fold change was inactive: -0.043.

On to GABARAP (UniProt O95166), for which the log2 fold change was inactive: 0.06.

For the target GCSH (UniProt P23434), the log2 fold change was inactive: -0.124.

For the target GARS1 (UniProt P41250), the log2 fold change is inactive: 0.016.

Consider GEMIN6 (UniProt Q8WXD5), for which the log2 fold change is inactive: 0.033.

As for GALNS (UniProt P34059), the log2 fold change was inactive: 0.011.

As to GALE (UniProt Q14376), the log2 fold change was inactive: 0.025.

Take FSCN1 (UniProt Q16658): the log2 fold change was inactive: 0.003.

Compound in another assay: C1=CC(=CC=C1C2=NC3=C(N2)C=C(C=C3)C(=O)N)OC4=CC=C(C=C4)Cl
Described as above. Summed up:
as §1
As for FTSJ1 (UniProt Q9UET6), the log2 fold change was inactive: 0.039.

In the case of GCC2 (UniProt Q8IWJ2), the log2 fold change is inactive: 0.011.

Turning to GALNT7 (UniProt Q86SF2), the log2 fold change was inactive: -0.038.

Take GEMIN2 (UniProt O14893): the log2 fold change was inactive: -0.001.

Regarding GANAB isoform 2 (UniProt Q14697), the log2 fold change was inactive: 0.

In the case of GALNT5 (UniProt Q7Z7M9), the log2 fold change was inactive: -0.024.

Take GALNT2 (UniProt Q10471): the log2 fold change is inactive: -0.098.

For G3BP2 (UniProt Q9UN86), the log2 fold change was inactive: -0.018.

Consider GBA (UniProt P04062), for which the log2 fold change was inactive: -0.043.

Turning to FUCA1 (UniProt P04066), the log2 fold change was inactive: 0.037.

Consider GATAD2B (UniProt Q8WXI9), for which the log2 fold change was inactive: -0.037.

As to FREM2 (UniProt Q5SZK8), the log2 fold change is inactive: -0.109.

In the case of FRRS1 (UniProt Q6ZNA5), the log2 fold change is inactive: 0.096.

In the case of GCC1 (UniProt Q96CN9), the log2 fold change was inactive: 0.033.

For the target FXN (UniProt Q16595), the log2 fold change is inactive: -0.04.

In the case of GABPB1 (UniProt Q06547), the log2 fold change is inactive: 0.012.

As for FPGT (UniProt O14772), the log2 fold change is inactive: -0.003.

For GALM (UniProt Q96C23), the log2 fold change is inactive: -0.001.

GALNT1 (UniProt Q10472): the log2 fold change was inactive: 0.008.

Take GAPDH (UniProt P04406): the log2 fold change is inactive: 0.031.

With GFER (UniProt P55789), the log2 fold change is inactive: 0.022.

Consider GFPT1 (UniProt Q06210), for which the log2 fold change was inactive: 0.003.

Consider GART (UniProt P22102), for which the log2 fold change is inactive: -0.025.

Consider GALNT12 (UniProt Q8IXK2), for which the log2 fold change is inactive: -0.014.

Turning to GFM1 (UniProt Q96RP9), the log2 fold change is inactive: 0.044.

Consider FYB1 isoform 3 (UniProt O15117), for which the log2 fold change was inactive: -0.003.

For the target GABARAP (UniProt O95166), the log2 fold change is inactive: 0.006.

With GCSH (UniProt P23434), the log2 fold change was inactive: 0.018.

As for GARS1 (UniProt P41250), the log2 fold change is inactive: 0.012.

GEMIN6 (UniProt Q8WXD5): the log2 fold change was inactive: 0.024.

In the case of GALNS (UniProt P34059), the log2 fold change is inactive: 0.013.

On to GALE (UniProt Q14376), for which the log2 fold change is inactive: -0.108.

For the target FSCN1 (UniProt Q16658), the log2 fold change is inactive: 0.026.
